Measurements as given in patent publication US9434718B2, “TOFA analogs useful in treating dermatological disorders or conditions” (Dermira (Canada), Inc., priority 2009, dated 2016).

Test system: hamster ear sebaceous glands
Assay: Hamster ear sebaceous gland model, repeat topical application
Assay type: in vivo, Syrian golden hamster
Conditions: 21 consecutive days, 75 mM, ear cross-sections (FIG. 3)
Description: The Syrian golden hamster ([…]) ear sebaceous gland model was used to evaluate the effect of repeat application of TOFA and TOFA analogs. Male animals were employed since they have larger sebaceous glands than females a consequence of their higher endogenous levels of androgenic hormones. To define compound effects, cross-sections prepared from hamster ears were treated with the neutral lipid-specific stain Oil Red O. Staining results were compared to the untreated ear of the same animal in order to account for any changes in the overall physiological state of the animal as well as potential systemic effects stemming from local drug application.
Typically, compounds were prepared and applied in 40% dimethyl acetamide (DMA)/30% acetone/30% ethanol (vehicle). […] Animals were evaluated daily for general appearance and potential clinical signs related to treatment such as edema, erythema, discoloration or other changes to the ears. Hamsters were also assessed for general health by coat appearance, behavior, and activity level. […]
To assess sebaceous gland status, ear cross-sections were initially cut at a thickness of approximately 8 μm onto glass slides and immediately fixed with 10% buffered formalin. […] Relative sebaceous gland areas (red staining areas) were determined using Image-Pro software (Media Cybernetics Inc., Silver Spring, Md.). […]

SMILES	epidermal thickness in comparison to vehicle-treated controls
CCCCCCCCCCCCCCOc1ccc(C(=O)OCC(F)(F)F)o1 [Compound A, 2,2,2-trifluoroethyl 5-(tetradecyloxy)furan-2-carboxylate]	greater
CCCCCCCCCCCCCCOc1ccc(C(=O)O)o1 [TOFA, 5-(tetradecyloxy)-2-furancarboxylic acid]	greater
